PubChem BioAssay AID686938 – Drosophila RNAi Screening Center | 2013

- Purpose: 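Fly genes required for calcium entry once internal stores are emptied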 (primary screen)
- Cells: Drosophila S2R+ cells
- Reagents: long dsRNA against Drosophila genes, about 0.25 µg dsRNA per well, roughly 10,000 cells
- Duration: 5 days of knock-down before the calcium assay
- Treatment: thapsigargin (SERCA pump blocker) to empty calcium stores; entry signal taken 4 min after adding it
- Detection: 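Per-well fluo-4 fluorescence in two replicates, unnormalised, measured in resting cells and 4 min after store depletion by the SERCA blocker thapsigargin; ratio of the two present in few wells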
- Scale: calcium entry signal: higher = stronger calcium signal after store depletion; resting calcium signal: higher = higher resting calcium signal
- Call rule: 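Hit if the duplicate-averaged plate z-score for entry over resting signal is under −3; wells with weak total dye signal (Fmax z < −2) or more than 5 off-targets removed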
- Calls: active = strongly reduced calcium entry; inactive = no strong reduction
In all, the deposit lists about 23,000 reagents; shown is an unselected part of those that have a named target and a result. Over the whole deposit, 75 (0.33%) got an active call. 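Raw plate signals without normalisation; calls rest on plate z-scores that were not deposited; ratio present for only 364 wells.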 A plus sign joins genes that one reagent is predicted to hit. Reagent sequences are not shown. Not stated in the record: the dose of the treatment.

no.	Gene	amplicon	calcium entry signal, replicate 1 (fluorescence units)	calcium entry signal, replicate 2 (fluorescence units)	resting calcium signal, replicate 1 (fluorescence units)	resting calcium signal, replicate 2 (fluorescence units)	activity call
1	CG1494	DRSC20509	4.03e7	3.69e7	2.30e7	1.75e7	inactive
2	dock	DRSC00812	5.21e7		2.87e7		inactive
3	CG18787 + CG18789	DRSC02698	2.68e7	2.07e7	1.43e7	1.03e7	inactive
4	Pop4	DRSC10955	3.50e7	4.22e7	1.64e7	1.75e7	inactive
5	Targ	DRSC06206	2.53e7	4.47e7	1.48e7	1.86e7	inactive
6	Pbp45	DRSC16509	2.73e7	3.79e7	1.40e7	5.66e7	inactive
7	CG8405	DRSC05599	1.55e7	4.36e7	8.32e6	2.59e7	inactive
8	CG8405	DRSC07166	3.64e7	4.02e7	1.52e7	1.78e7	inactive
9	jbug	DRSC03952	3.53e7	6.12e7	1.59e7	2.74e7	inactive
10	jbug	DRSC04114	3.91e7		2.07e7		inactive
11	jbug	DRSC04167	3.81e7	4.85e7	2.00e7	2.06e7	inactive
12	jbug	DRSC04388	3.77e7	4.17e7	1.94e7	1.87e7	inactive
13	CG18746	DRSC15383	4.84e7	4.97e7	2.02e7	2.12e7	inactive
14	repo	DRSC16369	3.34e7	4.63e7	4.23e7	1.96e7	inactive
15	repo	DRSC23108	4.08e7	3.90e7	1.82e7	1.65e7	inactive
16	Snx27	DRSC17786	3.16e7	4.73e7	1.68e7	2.22e7	inactive
17	Snx27	DRSC18282	3.17e7	4.79e7	1.63e7	2.43e7	inactive
18	Snx27	DRSC18284	3.04e7	5.04e7	1.60e7	2.35e7	inactive
19	TbCMF46	DRSC02221	3.48e7	4.55e7	1.66e7	1.94e7	inactive
20	CG1671	DRSC06617	3.26e7	2.36e7	1.61e7	1.36e7	inactive
21	Capr	DRSC10346	3.50e7	6.16e7	1.90e7	2.35e7	inactive
22	CG30430	DRSC22260	1.93e7	3.22e7	9.61e6	1.63e7	inactive
23	CG17715	DRSC11950	2.49e7	4.01e7	1.22e7	1.65e7	inactive
24	Prosbeta7	DRSC12186	1.61e7	1.38e7	1.12e7	9.41e6	inactive

Quoted from the listing for reference:
no.	Gene	amplicon	calcium entry signal, replicate 1 (fluorescence units)	calcium entry signal, replicate 2 (fluorescence units)	resting calcium signal, replicate 1 (fluorescence units)	resting calcium signal, replicate 2 (fluorescence units)	activity call
14	repo	DRSC16369	3.34e7	4.63e7	4.23e7	1.96e7	inactive
15	repo	DRSC23108	4.08e7	3.90e7	1.82e7	1.65e7	inactive
16	Snx27	DRSC17786	3.16e7	4.73e7	1.68e7	2.22e7	inactive
